According to the supplement of paper PMC4683952:
This is one part of the list. Rule as the data show it: active = 2 or more and inactive = the rest. Single values are uncertain here, since repeats match poorly.

test system: Lgr5 (MarsCy1-Lgr5-EGFP, U2OS); assay: cell-surface Lgr5 expression (SCi1 fluorescence, background-subtracted) relative to WT DMSO (fold of DMSO control); higher = more Lgr5 at the plasma membrane; conditions: U2OS MarsCy1-Lgr5-EGFP stable; treatment time: overnight; library: ActiProbe-5K (TimTec); 25 µM

cell-surface Lgr5 expression, inactive:
CC12CC3CC(C)(C1)CC(N)(C3)C2 1.3, Nc1[nH]c(=S)sc1C(=O)Nc1nccs1 0.982, Cn1c(=O)n(C)c2cc(Br)c(Br)cc21 0.902, O=[N+]([O-])c1cc(Oc2ccc(F)c(Cl)c2)cc(-n2cnnn2)c1 1.46, c1ccc2c(c1)nnn2CN1CCN(c2ccc3c(c2)OCO3)CC1 0.921, CCc1sc(C(C2C(=O)CC(C)(C)CC2=O)C2C(=O)CC(C)(C)CC2=O)cc1Br 1.09, Cc1cc2nc(O)c(CCO)c(C)n2n1 1.09, CCCCCC1CCC(/C(C)=N/NC(N)=O)CC1 (stereo not drawn) 1.36, Nc1ccc(N2CCOCC2)c(S(=O)(=O)N2CCOCC2)c1 1.16, Oc1nc2cc(Br)cnc2nc1O 1.43, CCn1cc(Br)c(C(=O)N2CCN3CCCC3C2)n1 (stereo not drawn) 1.11, CCOC(=O)c1c(N)sc(C(C)=O)c1C 1.41, O=C(NC1CCCCCC1)c1ccco1 0.985, Nc1cc(=O)[nH]c(=S)n1C1CC1 1.26, Cn1nc(C(=O)NN)c(Br)c1C(F)(F)F 1.13, O=C(CC1(C(F)(F)C(F)F)NCCN1)c1cccs1 1.13, c1ccc(-n2nnnc2SC2c3ccccc3-c3ccccc32)cc1 0.985, Cn1cnc([N+](=O)[O-])c1C(=O)O 0.911, OCCCNc1nn2c(C(F)(F)C(F)(F)F)nnc2c2ccccc12 1.37, O=c1oc(-c2cccs2)nc2sc3c(c12)CCCC3 1.24, c1(c(c2CCCc2s1)C#N)NC(C1C(C)(C)C1\C=C(/Cl)Cl)=O (stereo not drawn) 1.11, O=C1Nc2ccc(Br)cc2/C1=N/Nc1nnn[nH]1 1.01, N#Cc1cnc(N2CCCCC2)nc1N 0.972, Cc1ccc2c(c1)/C(=C/c1ccc3c(c1)OCO3)c1cccnc1-2 1.01, COc1c(C=O)c(C)nn1C 1.26, Cc1cc2c(c(=O)[nH]1)C(=O)OC2 1.45, COC(=O)c1cccoc1=O 1.04, CCCc1[nH]nc2c1C1(CC[C@H]3CO[C@@H]1O3)C(C#N)=C(N)O2 (stereo partly drawn) 1.12, O=Cc1ccc(Br)s1 0.992, Cc1cnn(C(C)c2nnc(NC3CC3)s2)c1 (stereo not drawn) 1.12, CC1(C)NC(=O)N(CC(O)CN2C(=O)NC(C)(C)C2=O)C1=O 1.63, OC1CC(C(F)(F)F)Oc2ccccc21 (stereo not drawn) 1.12, Fc1ccc(Nc2ncc(F)c(Nc3ccc(F)c(Cl)c3)n2)cc1Cl 1.37, Fc1ccc(NC(=S)N2CCCC2)cc1 1.18, FC(F)(F)c1ccc(/C=N/N2CCN(C3c4ccccc4-c4ccccc43)CC2)cc1 1.31, O=S(=O)(c1ccc(F)cc1)N1CCCCC1 1.29, O=C(Cc1cccs1)N/N=C\c1cccs1 1.08, CCOC(=O)CSC1=C(C#N)[C@H](c2ccccc2[N+](=O)[O-])C(C(C)=O)=C(C)N1 0.948, C=CCn1c(SCc2ccc3nonc3c2)nnc1-c1cccnc1 1.31, CC(CCO)c1cc(C(C)(C)C)c(O)c(C(C)(C)C)c1 (stereo not drawn) 1.03, CN(C)c1nc(/C(N)=N/O)nc(N(C)C)n1 0.975, Cn1c(COc2ccccc2)nn(C2c3ccccc3Oc3ccccc32)c1=S 0.971, CCC(C)NS(=O)(=O)c1cc(Cl)ccc1Cl (stereo not drawn) 1.08, CCCCCc1c2c(C)c(C(=O)OCC)nc-2cc2n1C(C)C(C)=C2C.Cl (stereo not drawn) 1.18, Cc1ccc(C)c(N=C=S)c1 1.4, CSc1nc2c(cc1C#N)CCCC2 1.02, Cn1cc(Cl)c(C(=O)N/N=C/C2CC=CCC2)n1 (stereo not drawn) 1.15, CC1=NN(S(=O)(=O)c2cnn(C)c2)C(O)(C(F)(F)F)C1 (stereo not drawn) 1.13, NNc1ccc(Oc2ccccc2)c(S(=O)(=O)O)c1 1.22, COC(=O)c1nonc1N 0.942, CCN1C(=O)N(CC)C2OCOC21 (stereo not drawn) 1.07, Cn1cc(C(C2=C(O)CC(C)(C)CC2=O)C2=C(O)CC(C)(C)CC2=O)cn1 1.27, O=C(COC(=O)c1cc2ccccc2o1)C1=CC2C=CC=CC2O1 (stereo not drawn) 1.21, CSc1ccc(C2C(C#N)=C(N)N3C(=C2C#N)Sc2ccccc23)cc1 (stereo not drawn) 1.11, COc1ccc2c(ccc[n+]2[O-])c1 1.54, CS(=O)(=O)Oc1cc2c(cc1[N+](=O)[O-])OCO2 1.02, Cc1cc(C(C)c2cc(C)cc(C(C)(C)C)c2O)c(O)c(C(C)(C)C)c1 1.53, Cc1sc2ccc3sccc3c2[n+]1CCCS(=O)(=O)[O-] 1.22, CC1CCc2c(sc3nc(-c4ccco4)oc(=O)c23)C1 (stereo not drawn) 1.15, O=S(=O)(Cc1ccc(Cl)cc1Cl)c1nc2cccnc2[nH]1 1.05, Oc1cc(O)c2sc3nc4c(cc3c2n1)CCCCC4 1.1, N/C(=N\OCC(=O)N1CCCCC1)c1nonc1N 1.1, O/N=C\c1ccc2ccccc2c1 0.87, CCc1nccn1S(=O)(=O)c1nc(C)c(Cl)c(C)c1C#N 1.31, O=C1NCCN1C(=O)N(c1ccccc1)c1ccccc1 0.949, CC1(C)Cc2noc(N)c2C(C)(C)N1O 1.09, S=c1n(CN2CCOCC2)nnn1-c1ccccc1 1.16, O=S(=O)(NC1CC2CCC1C2)c1ccc2c(c1)OCCO2 (stereo not drawn) 1.32, CC1CC(C(F)(F)C(F)(F)F)n2nc(C(=O)O)cc2N1 (stereo not drawn) 1.19, Clc1ccc(-c2nc3sc(-c4ccc(Cl)cc4)nc3s2)cc1 1.32, CCCCC(CC)C(=O)Nc1nnc(C(C)C)s1 (stereo not drawn) 1.24, CS(=O)(=O)Nc1ccc(F)c(F)c1 1.04, Nc1cc(=O)[nH]c(=S)[nH]1 1.22, O=C(O)c1c(F)c(F)c(F)c(F)c1C(=O)O 0.899, CC(=C/CCC1(C(NC(O1)=O)(O)C)C)/C (stereo not drawn) 1.01, CC1=CNc2nonc2NC1=O 1.23, O=C(Cn1cc([N+](=O)[O-])cn1)N1CCOCC1 1.62, O=c1c2ccccc2cnn1Cc1ccon1 1.08, O=C(N/N=C/C=C/c1ccco1)c1cnccn1 1.02, CC1=CC(C)(C)NC(=S)N1c1ccc(C(C)C)cc1 0.929, O=[N+]([O-])c1ccc2c(c1)COc1ccccc1O2 0.986, Cc1cc(C(=O)N/N=C\c2ccco2)c(C)o1 1.18, CC(=O)/N=C1\SCC(=O)N1c1nonc1NC(C)=O 0.902, N#CC1=C(N)OC2=C(C(=O)CCC2)C1c1ccoc1 (stereo not drawn) 0.999, CC1=NN(c2nnn[nH]2)C(=O)/C1=C\c1cccs1 1.05, NC(=O)c1nc(S)n(Cc2ccco2)c1N 1.26, O=[N+]([O-])c1cccc(C2NNC(=S)S2)c1 (stereo not drawn) 1.02, CCOCc1cc(C)[nH]c(=O)c1C#N 1.13, Nc1nccc(-c2ccc(C(F)(F)F)cc2)n1 1.2, c1cc(C2=N[C@@H](c3ccncc3)[C@@H](c3ccncc3)N2)ccn1 0.804, O=[N+]([O-])c1ccc(Nc2cccc3ccccc23)c([N+](=O)[O-])c1 1.21, O=C1CCC=C1CSc1ccccc1 1.15, OCC(O)C(O)C(O)c1cnn(-c2ccccc2)n1 (stereo not drawn) 1.19, O=S(=O)([O][Na])c1cc(O)c2cc(O)ccc2c1 1.43, O=C(CCCCCCCC(=O)NNC(=O)c1cccs1)NNC(=O)c1cccs1 1.04, C(=N\Nc1nc(N2CCOCC2)nc(N2CCOCC2)n1)/c1ccccn1 0.939, CCN1CCN(c2cc3c(nn2)Oc2ccccc2N3C)CC1 1.39, CC1=Nc2ccc(-c3ccccc3)cc2C1(C)C 0.934, CSc1ccc(/C=N\N2CCN(C3c4ccccc4-c4ccccc43)CC2)cc1 1.18, CN(C)C(=O)N1CCN(C(=O)N(C)C)CC1 0.995, O=C1NC(=S)S/C1=C/c1ccc(-c2ccc3c(c2)C(=O)NC3=O)o1 1.42, O=C(CCCC(=O)NC1CCCCC1)NC1CCCCC1 1.23, CCCCc1nn(-c2ccccc2)[n+](-c2ccccc2)n1.[Br-] 1.09, CC1CCC2(CC1)C(C(=O)C13CC4CC(CC(C4)C1)C3)C2(C#N)C#N (stereo not drawn) 1.09, CN1CCOC1c1cccc(Cl)c1 (stereo not drawn) 1.07, O=C(/C=C\c1ccco1)NCCCn1cc(Br)cn1 1.19

cell-surface Lgr5 expression, active:
O=[N+]([O-])c1ccc(Nc2ccc(Br)c(Cl)c2)c([N+](=O)[O-])c1 2.49, CCCNc1nc(N2CCCC2)nc(N2CCCC2)n1 2.05
